Measured values: patent US8440637B2, “Combination treatment for the treatment of hepatitis C virus infection” (priority 2007, dated 2013)
Some entries share one result that the patent states for a list of compounds. Strand notation (5' to 3'): a small letter for the sugar, then the base; units joined by * are phosphorothioate-linked, units joined directly phosphodiester-linked; [ ] holds rarer units or linkages, { } end groups; capitals alone tell only the bases. l = locked nucleic acid (LNA); [5mC] = 5-methylcytosine; d = 2'-deoxy (DNA)

Tested on: ApoB-100 mRNA
Experiment: Serum total cholesterol after dosing apoB antisense oligonucleotides
Assay type: in vivo, mouse
Conditions: dosing 3*5 mg/kg/dose
Method: Total cholesterol level is measured in plasma using a colometric assay Cholesterol CP from ABX Pentra. The cholesterol is measured following enzymatic hydrolysis and oxidation. 21.5 μL water was added to 1.5 μL plasma. 250 μL reagent is added and within 5 min the cholesterol content is measured at a wavelength of 540 nm. Measurements on each animal was made in duplicates. The sensitivity and linearity was tested with 2 fold diluted control compound (ABX Pentra N control). The relative Cholesterol level was determined by subtraction of the background and presented relative to the cholesterol levels in plasma of saline treated mice.
In this study 5 mg/kg/dose were dosed on 3 consecutive days (one dose/day i.v.) and animals were sacrificed 24 hours after last dosing. At sacrifice, liver and retro orbital sinus blood was sampled. Serum was prepared from blood for analysis of cholesterol. RNA was isolated from the liver and the expression of ApoB-100 mRNA was measured.
In this study three different concentrations (10, 15 and 25 mg/kg) of SEQ ID NO 17 (Table 1) and SEQ ID NO 34 (Table 1) were examined for duration of action on ApoB-100 mRNA expression and serum cholesterol level. SEQ ID NO 17 and SEQ ID NO 34 were given as a single dose of 10, 15 or 25 mg/kg to C57BL/6 female mice. […]

Row | Substance | reduction of serum cholesterol
1 | 5′-Gs^MeCsaststsgsgstsastsTs^MeC-3′ (antisense lG*l[5mC]*dA*dT*dT*dG*dG*dT*dA*dT*lT*l[5mC]) [SEQ ID NO: 34] | 85-90%
2 | 5′-Gs^MeCsaststsgsgstsastsTs^MeCsA-3′ (antisense lG*l[5mC]*dA*dT*dT*dG*dG*dT*dA*dT*lT*l[5mC]*lA) [SEQ ID NO: 26] | 85-90%
